In paper doi:10.1101/2023.10.04.560821:
These are yes or no findings as the source states them, for the method shown. Binding can be weak; no strength is given.

Sequences of proteins named here, by UniProt entry; tags and fusion partners are left off. A change or cut given only in a name is not applied to a line headed by its entry. Residues count along the entry.
UniProt P40238, residues 26-635: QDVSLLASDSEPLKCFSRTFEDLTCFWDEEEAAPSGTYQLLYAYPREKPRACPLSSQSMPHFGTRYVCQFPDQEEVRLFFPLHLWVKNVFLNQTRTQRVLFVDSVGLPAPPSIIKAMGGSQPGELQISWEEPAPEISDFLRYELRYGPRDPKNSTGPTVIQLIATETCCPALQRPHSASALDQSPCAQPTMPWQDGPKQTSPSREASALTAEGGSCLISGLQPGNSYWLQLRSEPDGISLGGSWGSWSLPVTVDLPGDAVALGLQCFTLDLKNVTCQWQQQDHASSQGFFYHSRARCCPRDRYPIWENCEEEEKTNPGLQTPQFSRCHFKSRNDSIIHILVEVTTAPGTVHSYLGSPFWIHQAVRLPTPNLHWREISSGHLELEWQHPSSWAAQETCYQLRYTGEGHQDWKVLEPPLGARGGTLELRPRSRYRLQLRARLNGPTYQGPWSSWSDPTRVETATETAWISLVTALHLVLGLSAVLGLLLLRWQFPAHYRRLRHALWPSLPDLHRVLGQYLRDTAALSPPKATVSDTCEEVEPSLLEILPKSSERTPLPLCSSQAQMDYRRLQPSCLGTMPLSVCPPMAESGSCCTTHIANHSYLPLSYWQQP
UniProt P52333: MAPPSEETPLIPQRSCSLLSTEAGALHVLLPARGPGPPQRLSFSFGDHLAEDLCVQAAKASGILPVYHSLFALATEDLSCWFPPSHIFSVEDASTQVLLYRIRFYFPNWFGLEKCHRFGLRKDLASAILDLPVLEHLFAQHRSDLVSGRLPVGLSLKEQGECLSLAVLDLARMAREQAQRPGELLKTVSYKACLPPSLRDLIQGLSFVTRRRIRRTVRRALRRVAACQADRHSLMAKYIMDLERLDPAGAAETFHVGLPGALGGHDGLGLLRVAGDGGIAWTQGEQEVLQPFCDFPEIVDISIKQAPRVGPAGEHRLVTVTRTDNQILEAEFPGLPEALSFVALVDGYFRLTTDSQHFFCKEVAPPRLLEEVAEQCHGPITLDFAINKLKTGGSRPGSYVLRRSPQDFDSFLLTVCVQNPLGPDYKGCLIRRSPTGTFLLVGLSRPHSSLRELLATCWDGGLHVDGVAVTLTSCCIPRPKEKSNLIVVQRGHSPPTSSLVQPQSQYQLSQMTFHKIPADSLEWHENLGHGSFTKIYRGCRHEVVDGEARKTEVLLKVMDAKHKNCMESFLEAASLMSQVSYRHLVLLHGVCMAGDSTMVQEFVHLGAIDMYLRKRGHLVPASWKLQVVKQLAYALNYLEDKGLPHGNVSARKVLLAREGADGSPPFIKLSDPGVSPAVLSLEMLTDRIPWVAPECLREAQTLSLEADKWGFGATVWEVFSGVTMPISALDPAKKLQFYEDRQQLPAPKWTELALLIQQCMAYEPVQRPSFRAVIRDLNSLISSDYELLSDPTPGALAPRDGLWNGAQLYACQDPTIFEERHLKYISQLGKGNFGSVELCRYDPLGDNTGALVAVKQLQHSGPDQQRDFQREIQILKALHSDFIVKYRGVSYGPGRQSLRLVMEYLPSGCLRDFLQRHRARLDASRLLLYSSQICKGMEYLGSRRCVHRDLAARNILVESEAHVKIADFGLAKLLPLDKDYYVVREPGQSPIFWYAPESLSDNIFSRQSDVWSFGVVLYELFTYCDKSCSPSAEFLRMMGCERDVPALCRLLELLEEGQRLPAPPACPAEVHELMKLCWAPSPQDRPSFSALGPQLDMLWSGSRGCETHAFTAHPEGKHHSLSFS

Legend:
HaloTag-mTagBFP-TPOR [1] = molecular target: HaloTag-mTagBFP-TPOR (UniProt P40238); assay: FRAP on micropatterned cells
HaloTag-mTagBFP-TPOR [2] = molecular target: HaloTag-mTagBFP-TPOR (UniProt P40238); assay: live cell micropatterning

“JAK3-FS (FERM/SH2 domains of JAK3 with mEGFP) (from UniProt P52333) (domain or fragment)” was tested, and the binding (HaloTag-mTagBFP-TPOR [1]) was “binds” and the binding (HaloTag-mTagBFP-TPOR [2]) was “binds”.
